# Laboratory results from PubChem BioAssay AID1671190 (National Center for Advancing Translational Sciences (NCATS), 2021).
# By UniProt entry, the sequences of proteins in these tests, tags left out. Where a name states a change or a piece, a line headed by the entry shows the natural chain unless it says otherwise.
# UniProt P18054: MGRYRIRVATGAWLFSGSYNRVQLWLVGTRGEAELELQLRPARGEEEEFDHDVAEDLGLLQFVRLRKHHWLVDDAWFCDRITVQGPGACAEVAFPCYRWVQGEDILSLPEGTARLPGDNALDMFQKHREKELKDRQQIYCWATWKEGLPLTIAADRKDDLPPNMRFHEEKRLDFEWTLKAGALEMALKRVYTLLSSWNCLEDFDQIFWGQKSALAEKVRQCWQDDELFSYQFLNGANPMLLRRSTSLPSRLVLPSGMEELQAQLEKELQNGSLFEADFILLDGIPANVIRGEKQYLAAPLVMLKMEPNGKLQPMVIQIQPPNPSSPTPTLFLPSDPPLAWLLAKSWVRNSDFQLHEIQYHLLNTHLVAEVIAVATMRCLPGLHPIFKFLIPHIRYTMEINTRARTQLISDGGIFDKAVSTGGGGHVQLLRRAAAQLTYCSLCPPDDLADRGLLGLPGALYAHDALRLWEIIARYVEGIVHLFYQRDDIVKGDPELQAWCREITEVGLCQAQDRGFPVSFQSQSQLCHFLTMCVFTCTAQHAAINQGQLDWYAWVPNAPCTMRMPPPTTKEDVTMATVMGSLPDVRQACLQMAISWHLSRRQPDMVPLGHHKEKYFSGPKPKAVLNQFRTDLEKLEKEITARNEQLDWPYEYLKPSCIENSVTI
# Among all 580,000 compounds or so, about 6,100 (1.1%) were called active. This list was built around the results that the source calls inconclusive (neither active nor inactive); the mix of calls is not that of the screen. Calls come from the whole dose curve; as a rule, active = well fitted inhibition curve with a large enough effect; inconclusive = small, poorly fitted or top-dose-only effect, or another doubt; inactive = no such curve, though single readings can be large or run the other way. Potencies beside an inconclusive call are fits to weak or partial responses and may not hold up.
# Target: Polyunsaturated fatty acid lipoxygenase ALOX12 (Homo sapiens) (UniProt P18054)
# Assay: Primary qHTS assay for inhibitors of human arachidonate 12S-lipoxygenase (ALOX12): Round 2
# Details: purified 12hLO, xylenol orange hydroperoxide absorbance; activity change, negative = inhibition: at 108 µM (top of the series) unless noted
# How it was run: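 Purified human 12hLO (150 nM final) in 25 mM Hepes, 0.01% Triton X-100, pH 7.0 was preincubated 15 min at room temperature with compound. Then 40 uM arachidonic acid was added, 30 min. Hydroperoxide was read by Fe-XO absorbance ratio 573/405 nm.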
# % is set by controls: 0 for no effect and ±100 for the full control effect; potency is the fitted concentration of half-maximal effect.
Compound,"activity change, negative = inhibition",Potency
O=C(Nc1nc2ccccc2[nH]1)c1cccc(S(=O)(=O)N2CCc3ccccc32)c1,inactive: 2.63%,
Cc1cccc(C)c1NCc1n[nH]c(=S)n1-c1ccccc1,inactive: -12.5%,
Clc1ccc(C[n+]2cc(-c3ccccc3)n3c2CCCCC3)c(Cl)c1,inactive: 4.15%,
Cc1oc2c(c1C(=O)N1CCN(c3ccccc3)CC1)CN(Cc1ccc(F)cc1)CC2,,"inconclusive: 10 µM [inhibitor, partial curve, poor fit]"
COc1cccc(NC(=O)c2ccc3c(c2)C(=O)N(CC2CCCO2)C3=O)c1 (centres undefined),inactive: 9.02%,
COc1cc(NC(=O)c2cc(Cl)ccc2Cl)ccc1NC(=O)c1cc2ccccc2o1,inactive: -12.5%,
CN(Cc1ccc(Cl)c(Cl)c1)C(=O)c1[nH]c(C(F)(F)F)nc1-c1ccccc1,,"inconclusive: 31.6 µM [inhibitor, single point]"
CCCc1ccc(C(=O)/C=C/N(C)C)cc1,,"inconclusive: 1.12 µM [inhibitor, full curve, poor fit]"
CCOC(=O)C1C(C(C)=O)=C(c2ccccc2)c2ccccc2N1S(=O)(=O)C(F)(F)F (centres undefined),,"inconclusive: 35.5 µM [inhibitor, partial curve]"
COc1ccc(-c2cc(C(=O)NCC(C)C)c3c(C4CCNC4)nn(C)c3n2)cc1 (centres undefined),inactive: 8.14% [at 6.33 µM],
Cc1nnc(NC(=O)CSc2nnc(CC(=O)Nc3ccccc3C)n2C)s1,,"inconclusive: 50.1 µM [inhibitor, partial curve, poor fit]"
Cn1c(SCC(=O)O)nnc1-c1ccc(NC(=O)c2ccc(Cl)c(Cl)c2)cc1,,"inconclusive: 100 µM [inhibitor, single point]"
CCN(c1cccc(C)c1)S(=O)(=O)c1cc2[nH]c(=O)c(=O)[nH]c2cc1C,inactive: 427%,
CCN(CC)C(=O)C1CCN(CC2CC=CCC2)CC1 (centres undefined),inactive: -44.1%,
COCC(=O)N(C)C[C@H]1Oc2ncc(Br)cc2C(=O)N([C@@H](C)CO)C[C@H]1C,,"inconclusive: 39.8 µM [inhibitor, single point]"
O=C(Cn1nc(Cl)nc1Cl)c1ccc(Cl)cc1,,"inconclusive: 31.6 µM [inhibitor, partial curve]"
COc1cccc(-n2ccnc2SCC(=O)Nc2cc(OC)ccc2OC)c1,inactive: 0%,
C=CCNC(=S)N/N=C/c1ccc(C)s1,,"inconclusive: 126 µM [inhibitor, single point]"
O=C(NCc1ccccc1)c1cccc(NC(=S)Nc2ccc(Br)cc2Cl)c1,,"inconclusive: 50.1 µM [inhibitor, partial curve, poor fit]"
COc1ccc(OC)c(CN2CCCC(C(=O)N3CCCCCC3)C2)c1 (centres undefined),,"inconclusive: 0.562 µM [inhibitor, full curve, poor fit]"
CN(C)C(=O)CN1CCN(C(C(=O)O)c2c[nH]c3ccccc23)CC1 (centres undefined),,"inconclusive: 6.31 µM [inhibitor, full curve, poor fit]"
N#Cc1ccccc1S(=O)(=O)N1CCN(S(=O)(=O)c2ccc(Br)c(C(=O)O)c2)CC1,inactive: -3.25%,
Cc1ccc(C)c(-c2csc(-c3ccc(O)cc3)n2)c1,,"inconclusive: 39.8 µM [inhibitor, partial curve, poor fit]"

Compound,"activity change, negative = inhibition",Potency
CCOC(=O)C1CCCN(Cc2ccccc2OCC)C1 (centres undefined),,"inconclusive: 0.355 µM [inhibitor, full curve, poor fit]"
CCCS(=O)(=O)NC(=O)C1(C)CCCN(C(=O)c2sccc2C)C1 (centres undefined),,"inconclusive: 126 µM [inhibitor, single point]"
COCCNC(=O)C1CCCN(Cc2ccc(-c3ccccc3)cc2)CC1 (centres undefined),,"inconclusive: 141 µM [inhibitor, single point]"
CC1(NC(=O)Cc2ccc3ccccc3c2)CCCC1,,"inconclusive: 50.1 µM [inhibitor, partial curve, poor fit]"
COC(=O)c1sc(NC(=O)CN2CCc3ccccc32)c(C(=O)OC)c1C,,"inconclusive: 100 µM [inhibitor, single point]"
Cc1nc(-c2ccccc2)c(-c2ccccc2)s1,inactive: 17%,
O=c1[nH]cc(C(F)(F)F)cc1NS(=O)(=O)c1ccccc1[N+](=O)[O-],,"inconclusive: 0.708 µM [inhibitor, full curve, poor fit]"
O=C(CCc1ccccc1)N(Cc1cccnc1)c1nc2c(F)cc(F)cc2s1,,"inconclusive: 158 µM [inhibitor, single point]"
Cc1nc2ncnn2c(N2CCCC(C(=O)Nc3ccc4c(c3)CCC4)C2)c1C (centres undefined),inactive: -18%,
O=C(c1cnn(C(=O)COc2ccccc2F)c1)c1cc(F)ccc1O,,"inconclusive: 6.31 µM [inhibitor, full curve, poor fit]"
Cc1ccc(C)c(Nc2nn3c(=O)c4ccc(C(=O)NCCC5=CCCCC5)cc4nc3s2)c1,,"inconclusive: 63.1 µM [inhibitor, partial curve, poor fit]"
COC(=O)c1c(C(=O)OC)n(CCCN)c2ccc(C)cc12,inactive: 8.64%,
Cc1ccc(CNn2cnnc2SCc2ccc(F)cc2)cc1,,"inconclusive: 50.1 µM [inhibitor, full curve, poor fit]"
CCOC(=O)CSc1nnc(CNC(=O)c2cccs2)n1-c1ccccc1,inactive: 15.4%,
Cc1ccc(C(=O)Nc2nc3nc(C)cc(=O)n3[nH]2)cc1,inactive: 0%,
CCN(C(=O)CSc1ncn[nH]1)c1cccc2ccccc12,,"inconclusive: 2.82 µM [inhibitor, full curve, poor fit]"
COCC(=O)Nc1ncc(S(=O)(=O)c2ccc([N+](=O)[O-])cc2)s1,inactive: -1.99%,
Cc1ccc(-n2c(SCc3cccc(C)c3)nc3c(=O)[nH]cnc32)cc1,inactive: 16.1%,
CCCN(C(=O)C(=O)Nc1ccc2nc3n(c(=O)c2c1)CCCCC3)c1ccc(OCC)cc1,,"inconclusive: 100 µM [inhibitor, partial curve, poor fit]"
CCNc1ncc2nc(-c3cn(C)c4ccccc34)c(=O)n(C[C@H]3CCCO3)c2n1,,"inconclusive: 35.5 µM [inhibitor, partial curve, poor fit]"
O=C(O)C1=C[C@@H](c2ccc(Br)cc2)C[C@@H](OCc2ccc(CO)cc2)O1,,"inconclusive: 5.01 µM [inhibitor, full curve, poor fit]"
CCN(CC)C1Oc2cc3c(cc2C(c2cc(OC)c(OC)c(OC)c2)C1C)OCO3 (centres undefined),inactive: -0.803%,
COCC(C)n1c(C)cc(C(=O)CSc2ccc(NC(C)=O)cc2)c1C (centres undefined),,"inconclusive: 44.7 µM [inhibitor, partial curve, poor fit]"

# 4 structures from above, ordered by formula weight, low to high:
Compound,"activity change, negative = inhibition",Potency
COC(=O)c1c(C(=O)OC)n(CCCN)c2ccc(C)cc12,inactive: 8.64%,
O=c1[nH]cc(C(F)(F)F)cc1NS(=O)(=O)c1ccccc1[N+](=O)[O-],,"inconclusive: 0.708 µM [inhibitor, full curve, poor fit]"
CCOC(=O)CSc1nnc(CNC(=O)c2cccs2)n1-c1ccccc1,inactive: 15.4%,
CCCN(C(=O)C(=O)Nc1ccc2nc3n(c(=O)c2c1)CCCCC3)c1ccc(OCC)cc1,,"inconclusive: 100 µM [inhibitor, partial curve, poor fit]"

# Following part

Compound,"activity change, negative = inhibition",Potency
O=C(CN1C(=O)NC2(CCc3ccccc32)C1=O)c1ccc(Br)s1 (centres undefined),,"inconclusive: 79.4 µM [inhibitor, partial curve, poor fit]"
c1ccc(C2=Nc3ccccc3NC(c3ccccc3)C2)cc1 (centres undefined),inactive: 3.15%,
COc1ccc(CN2C(=O)COC[C@H]2C(=O)Nc2ccc(C(C)C)cc2)c(OC)c1,,"inconclusive: 15.8 µM [inhibitor, full curve, poor fit]"
COC(=O)C1C/C(=N/NS(=O)(=O)c2ccc(C)cc2)CS1 (centres undefined),inactive: 0.407%,
S=c1[nH]ncn1NCc1cccc(Br)c1,,"inconclusive: 112 µM [inhibitor, single point]"
CCc1ccccc1N1CCN(S(=O)(=O)c2ccc(F)c(C)c2)CC1,,"inconclusive: 141 µM [inhibitor, single point]"
Fc1cccc(OCc2cc(-c3ccccc3)on2)c1,,"inconclusive: 126 µM [inhibitor, single point]"
COc1ccc(C2=Nc3ccccc3N(C(=O)c3ccc(C(F)(F)F)cc3)C2C(=O)Nc2c(C)cccc2C)cc1 (centres undefined),inactive: -2%,
CCOC(=O)c1sc(CC(=O)Nc2ccc(C)cc2)nc1C,,"inconclusive: 44.7 µM [inhibitor, partial curve, poor fit]"
O=C(NCCc1csc(-c2ccc(Cl)cc2)n1)c1ccco1,,"inconclusive: 89.1 µM [inhibitor, partial curve, poor fit]"
CC(C)CN1CCN(CCN(C)Cc2ccccc2)CC1,,"inconclusive: 39.8 µM [inhibitor, partial curve, poor fit]"
COc1ccc([C@@H]2CN(C(=O)CCc3ccsc3)C[C@H]2N(C)C)cc1,inactive: 20.8%,
COc1ccc(S(=O)(=O)N(Cc2ccccc2)c2ccccc2C(=O)Nc2ccccc2C(=O)NCc2ccco2)cc1,inactive: -1.65%,
Cc1nc(/C=C/c2ccccc2)cc(/C=C/c2ccccc2)n1,inactive: 0%,
Cc1cccc2nc(-c3ccc(N(C)C)cc3)c(Nc3ccc4c(c3)OCO4)n12,inconclusive: -49.7% [inhibitor],
COc1ccc(CCNc2nc3ccc(Cl)cc3n3cnnc23)cc1OC,inactive: -11.8%,
O=C(C1CC(c2ccc(F)cc2)=NO1)N1CCCc2ccccc21 (centres undefined),,"inconclusive: 0.316 µM [inhibitor, full curve, poor fit]"
CN1C(=O)C(=O)/C(=C(/O)c2ccc(Br)cc2)C1c1ccccc1F (centres undefined),,"inconclusive: 56.2 µM [inhibitor, partial curve]"
Cc1ccc(-n2nc3c(c2NC(=O)c2ccco2)CS(=O)C3)cc1 (centres undefined),,"inconclusive: 22.4 µM [inhibitor, partial curve]"
CCn1c(=O)c(=O)n(CC(=O)NCCN2CCN(c3cccc(Cl)c3)CC2)c2ccccc21,inactive: 4.52%,
O=C(COC(=O)c1c[nH]c(=O)[nH]c1=O)Nc1cccc([N+](=O)[O-])c1,,"inconclusive: 44.7 µM [inhibitor, single point]"
CCN(CC)S(=O)(=O)c1ccc(OC)c(NC(=O)CSCc2c(C)noc2C)c1,inactive: 1.98%,
CCSc1ncc(/C=N/Nc2ccc([N+](=O)[O-])cc2)n1C,inactive: 0%,
